# Data reported in patent US8268874B2, “Anti-cancer compounds, synthesis thereof, and methods of using same” (University of Notre Dame du Lac, priority 2008, dated 2012).
# Test system: 60 cell lines in the NCI assay
# Assay: Standard COMPARE analysis of compound 9c against standard agents
# Conditions: COMPARE correlation of the standard agent with compound 9c (ND-6732)
row,Structure (SMILES),"Correlation, Standard Agents TGI"
1,COc1cc2cc(c1Cl)N(C)C(=O)C[C@H](OC(=O)[C@H](C)N(C)C(C)=O)[C@]1(C)O[C@H]1[C@H](C)[C@@H]1C[C@@](O)(NC(=O)O1)[C@H](OC)/C=C/C=C(\C)C2 [Maytansine],0.611
2,CC(=O)O[C@H]1C(=O)[C@@]2(C)[C@H]([C@H](OC(=O)c3ccccc3)[C@]3(O)C[C@H](OC(=O)[C@H](O)[C@@H](NC(=O)c4ccccc4)c4ccccc4)C(C)=C1C3(C)C)[C@]1(OC(C)=O)CO[C@@H]1C[C@@H]2O [Paclitaxel],0.617
3,CC[C@]1(O)C[C@@H]2CN(CCc3c([nH]c4ccccc34)[C@@](C(=O)OC)(c3cc4c(cc3OC)N(C)[C@H]3[C@@](O)(C(=O)OC)[C@H](OC(C)=O)[C@]5(CC)C=CCN6CC[C@]43[C@@H]65)C2)C1 [Vinblastine Sulfate],0.615

# Structures can show the parent of a compound that is named as a salt.
